The target in the test is FLAG-SENP3 (UniProt Q9H4L4). The experiment in a line: affinity purification with mass spectrometry; 293T cells transfected with vector FLAG-pcDNA or FLAG-SENP3; co-IP with anti-FLAG antibody; gel silver stained, bands of approximately 100 kDa examined by MS; Table 1 lists the hits that were also increased in lysate of SENP3-transfected cells.

By UniProt entry, the sequences of proteins in these tests, tags left out.
UniProt Q9H4L4: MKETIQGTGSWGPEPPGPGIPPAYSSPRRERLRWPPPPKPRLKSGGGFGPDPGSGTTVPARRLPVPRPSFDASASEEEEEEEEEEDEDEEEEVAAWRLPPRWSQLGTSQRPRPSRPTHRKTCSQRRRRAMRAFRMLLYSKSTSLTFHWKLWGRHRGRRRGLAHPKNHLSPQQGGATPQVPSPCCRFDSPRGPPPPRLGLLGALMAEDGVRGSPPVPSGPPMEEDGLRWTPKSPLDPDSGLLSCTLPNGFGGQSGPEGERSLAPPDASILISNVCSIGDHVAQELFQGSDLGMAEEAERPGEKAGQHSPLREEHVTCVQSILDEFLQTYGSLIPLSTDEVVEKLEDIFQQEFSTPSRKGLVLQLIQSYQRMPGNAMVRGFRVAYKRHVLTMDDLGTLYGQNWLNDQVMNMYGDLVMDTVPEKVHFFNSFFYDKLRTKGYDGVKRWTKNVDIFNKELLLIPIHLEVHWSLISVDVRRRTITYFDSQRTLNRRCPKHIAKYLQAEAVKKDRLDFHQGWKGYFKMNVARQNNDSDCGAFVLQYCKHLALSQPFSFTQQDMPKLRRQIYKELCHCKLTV

This passage reports binding results from article PMC4707158.

These are yes or no findings as the source states them, for the method shown. In cells and extracts the contact can be indirect. A yes stands for co-enrichment or nearness to the bait. Other partners may have been found.

B1: PYGL (protein, UniProt P06737 1-847)
chain: MAKPLTDQEKRRQISIRGIVGVENVAELKKSFNRHLHFTLVKDRNVATTRDYYFALAHTVRDHLVGRWIRTQQHYYDKCPKRVYYLSLEFYMGRTLQNTMINLGLQNACDEAIYQLGLDIEELEEIEEDAGLGNGGLGRLAACFLDSMATLGLAAYGYGIRYEYGIFNQKIRDGWQVEEADDWLRYGNPWEKSRPEFMLPVHFYGKVEHTNTGTKWIDTQVVLALPYDTPVPGYMNNTVNTMRLWSARAPNDFNLRDFNVGDYIQAVLDRNLAENISRVLYPNDNFFEGKELRLKQEYFVVAATLQDIIRRFKASKFGSTRGAGTVFDAFPDQVAIQLNDTHPALAIPELMRIFVDIEKLPWSKAWELTQKTFAYTNHTVLPEALERWPVDLVEKLLPRHLEIIYEINQKHLDRIVALFPKDVDRLRRMSLIEEEGSKRINMAHLCIVGSHAVNGVAKIHSDIVKTKVFKDFSELEPDKFQNKTNGITPRRWLLLCNPGLAELIAEKIGEDYVKDLSQLTKLHSFLGDDVFLRELAKVKQENKLKFSQFLETEYKVKINPSSMFDVQVKRIHEYKRQLLNCLHVITMYNRIKKDPKKLFVPRTVIIGGKAAPGYHMAKMIIKLITSVADVVNNDPMVGSKLKVIFLENYRVSLAEKVIPATDLSEQISTAGTEASGTGNMKFMLNGALTIGTMDGANVEMAEEAGEENLFIFGMRIDDVAALDKKGYEAKEYYEALPELKLVIDQIDNGFFSPKQPDLFKDIINMLFYHDRFKVFADYEAYVKCQDKVSQLYMNPKAWNTMVLKNIAASGKFSSDRTIKEYAQNIWNVEPSDLKISLSNESNKVNGN
Turning to B1, the binding entry is “binds”.

B2: QARS (protein, UniProt P47897 1-775)
chain: MAALDSLSLFTSLGLSEQKARETLKNSALSAQLREAATQAQQTLGSTIDKATGILLYGLASRLRDTRRLSFLVSYIASKKIHTEPQLSAALEYVRSHPLDPIDTVDFERECGVGVIVTPEQIEEAVEAAINRHRPQLLVERYHFNMGLLMGEARAVLKWADGKMIKNEVDMQVLHLLGPKLEADLEKKFKVAKARLEETDRRTAKDVVENGETADQTLSLMEQLRGEALKFHKPGENYKTPGYVVTPHTMNLLKQHLEITGGQVRTRFPPEPNGILHIGHAKAINFNFGYAKANNGICFLRFDDTNPEKEEAKFFTAICDMVAWLGYTPYKVTYASDYFDQLYAWAVELIRRGLAYVCHQRGEELKGHNTLPSPWRDRPMEESLLLFEAMRKGKFSEGEATLRMKLVMEDGKMDPVAYRVKYTPHHRTGDKWCIYPTYDYTHCLCDSIEHITHSLCTKEFQARRSSYFWLCNALDVYCPVQWEYGRLNLHYAVVSKRKILQLVATGAVRDWDDPRLFTLTALRRRGFPPEAINNFCARVGVTVAQTTMEPHLLEACVRDVLNDTAPRAMAVLESLRVIITNFPAAKSLDIQVPNFPADETKGFHQVPFAPIVFIERTDFKEEPEPGFKRLAWGQPVGLRHTGYVIELQHVVKGPSGCVESLEVTCRRADAGEKPKAFIHWVSQPLMCEVRLYERLFQHKNPEDPTEVPGGFLSDLNLASLHVVDAALVDCSVALAKPFDKFQFERLGYFSVDPDSHQGKLVFNRTVTLKEDPGKV
Consider B2, for which the binding entry was “binds”.

B3: RRM1 (protein, UniProt P23921 1-792)
chain: MHVIKRDGRQERVMFDKITSRIQKLCYGLNMDFVDPAQITMKVIQGLYSGVTTVELDTLAAETAATLTTKHPDYAILAARIAVSNLHKETKKVFSDVMEDLYNYINPHNGKHSPMVAKSTLDIVLANKDRLNSAIIYDRDFSYNYFGFKTLERSYLLKINGKVAERPQHMLMRVSVGIHKEDIDAAIETYNLLSERWFTHASPTLFNAGTNRPQLSSCFLLSMKDDSIEGIYDTLKQCALISKSAGGIGVAVSCIRATGSYIAGTNGNSNGLVPMLRVYNNTARYVDQGGNKRPGAFAIYLEPWHLDIFEFLDLKKNTGKEEQRARDLFFALWIPDLFMKRVETNQDWSLMCPNECPGLDEVWGEEFEKLYASYEKQGRVRKVVKAQQLWYAIIESQTETGTPYMLYKDSCNRKSNQQNLGTIKCSNLCTEIVEYTSKDEVAVCNLASLALNMYVTSEHTYDFKKLAEVTKVVVRNLNKIIDINYYPVPEACLSNKRHRPIGIGVQGLADAFILMRYPFESAEAQLLNKQIFETIYYGALEASCDLAKEQGPYETYEGSPVSKGILQYDMWNVTPTDLWDWKVLKEKIAKYGIRNSLLIAPMPTASTAQILGNNESIEPYTSNIYTRRVLSGEFQIVNPHLLKDLTERGLWHEEMKNQIIACNGSIQSIPEIPDDLKQLYKTVWEISQKTVLKMAAERGAFIDQSQSLNIHIAEPNYGKLTSMHFYGWKQGLKTGMYYLRTRPAANPIQFTLNKEKLKDKEKVSKEEEEKERNTAAMVCSLENRDECLMCGS
Regarding B3, the binding entry is “binds”.

B4: GANAB (protein, UniProt Q14697 29-944)
chain: ITLAVDRSNFKTCEESSFCKRQRSIRPGLSPYRALLDSLQLGPDSLTVHLIHEVTKVLLVLELQGLQKNMTRFRIDELEPRRPRYRVPDVLVADPPIARLSVSGRDENSVELTMAEGPYKIILTARPFRLDLLEDRSLLLSVNARGLLEFEHQRAPRVSQGSKDPAEGDGAQPEETPRDGDKPEETQGKAEKDEPGAWEETFKTHSDSKPYGPMSVGLDFSLPGMEHVYGIPEHADNLRLKVTEGGEPYRLYNLDVFQYELYNPMALYGSVPVLLAHNPHRDLGIFWLNAAETWVDISSNTAGKTLFGKMMDYLQGSGETPQTDVRWMSETGIIDVFLLLGPSISDVFRQYASLTGTQALPPLFSLGYHQSRWNYRDEADVLEVDQGFDDHNLPCDVIWLDIEHADGKRYFTWDPSRFPQPRTMLERLASKRRKLVAIVDPHIKVDSGYRVHEELRNLGLYVKTRDGSDYEGWCWPGSAGYPDFTNPTMRAWWANMFSYDNYEGSAPNLFVWNDMNEPSVFNGPEVTMLKDAQHYGGWEHRDVHNIYGLYVHMATADGLRQRSGGMERPFVLARAFFAGSQRFGAVWTGDNTAEWDHLKISIPMCLSLGLVGLSFCGADVGGFFKNPEPELLVRWYQMGAYQPFFRAHAHLDTGRREPWLLPSQHNDIIRDALGQRYSLLPFWYTLLYQAHREGIPVMRPLWVQYPQDVTTFNIDDQYLLGDALLVHPVSDSGAHGVQVYLPGQGEVWYDIQSYQKHHGPQTLYLPVTLSSIPVFQRGGTIVPRWMRVRRSSECMKDDPITLFVALSPQGTAQGELFLDDGHTFNYQTRQEFLLRRFSFSGNTLVSSSADPEGHFETPIWIERVVIIGAGKPAAVVLQTKGSPESRLSFQHDPETSVLVLRKPGINVASDWSIHLR
With B4, the binding entry was “binds”.

B5: MOGS (protein, UniProt Q13724 1-837)
chain: MARGERRRRAVPAEGVRTAERAARGGPGRRDGRGGGPRSTAGGVALAVVVLSLALGMSGRWVLAWYRARRAVTLHSAPPVLPADSSSPAVAPDLFWGTYRPHVYFGMKTRSPKPLLTGLMWAQQGTTPGTPKLRHTCEQGDGVGPYGWEFHDGLSFGRQHIQDGALRLTTEFVKRPGGQHGGDWSWRVTVEPQDSGTSALPLVSLFFYVVTDGKEVLLPEVGAKGQLKFISGHTSELGDFRFTLLPPTSPGDTAPKYGSYNVFWTSNPGLPLLTEMVKSRLNSWFQHRPPGAPPERYLGLPGSLKWEDRGPSGQGQGQFLIQQVTLKIPISIEFVFESGSAQAGGNQALPRLAGSLLTQALESHAEGFRERFEKTFQLKEKGLSSGEQVLGQAALSGLLGGIGYFYGQGLVLPDIGVEGSEQKVDPALFPPVPLFTAVPSRSFFPRGFLWDEGFHQLVVQRWDPSLTREALGHWLGLLNADGWIGREQILGDEARARVPPEFLVQRAVHANPPTLLLPVAHMLEVGDPDDLAFLRKALPRLHAWFSWLHQSQAGPLPLSYRWRGRDPALPTLLNPKTLPSGLDDYPRASHPSVTERHLDLRCWVALGARVLTRLAEHLGEAEVAAELGPLAASLEAAESLDELHWAPELGVFADFGNHTKAVQLKPRPPQGLVRVVGRPQPQLQYVDALGYVSLFPLLLRLLDPTSSRLGPLLDILADSRHLWSPFGLRSLAASSSFYGQRNSEHDPPYWRGAVWLNVNYLALGALHHYGHLEGPHQARAAKLHGELRANVVGNVWRQYQATGFLWEQYSDRDGRGMGCRPFHGWTSLVLLAMAEDY
Regarding B5, the binding result is “binds”.

B6: NUP93 (protein, UniProt Q8N1F7 1-819)
chain: MDTEGFGELLQQAEQLAAETEGISELPHVERNLQEIQQAGERLRSRTLTRTSQETADVKASVLLGSRGLDISHISQRLESLSAATTFEPLEPVKDTDIQGFLKNEKDNALLSAIEESRKRTFGMAEEYHRESMLVEWEQVKQRILHTLLASGEDALDFTQESEPSYISDVGPPGRSSLDNIEMAYARQIYIYNEKIVNGHLQPNLVDLCASVAELDDKSISDMWTMVKQMTDVLLTPATDALKNRSSVEVRMEFVRQALAYLEQSYKNYTLVTVFGNLHQAQLGGVPGTYQLVRSFLNIKLPAPLPGLQDGEVEGHPVWALIYYCMRCGDLLAASQVVNRAQHQLGEFKTWFQEYMNSKDRRLSPATENKLRLHYRRALRNNTDPYKRAVYCIIGRCDVTDNQSEVADKTEDYLWLKLNQVCFDDDGTSSPQDRLTLSQFQKQLLEDYGESHFTVNQQPFLYFQVLFLTAQFEAAVAFLFRMERLRCHAVHVALVLFELKLLLKSSGQSAQLLSHEPGDPPCLRRLNFVRLLMLYTRKFESTDPREALQYFYFLRDEKDSQGENMFLRCVSELVIESREFDMILGKLENDGSRKPGVIDKFTSDTKPIINKVASVAENKGLFEEAAKLYDLAKNADKVLELMNKLLSPVVPQISAPQSNKERLKNMALSIAERYRAQGISANKFVDSTFYLLLDLITFFDEYHSGHIDRAFDIIERLKLVPLNQESVEERVAAFRNFSDEIRHNLSEVLLATMNILFTQFKRLKGTSPSSSSRPQRVIEDRDSQLRSQARTLITFAGMIPYRTSGDTNARLVQMEVLMN
Turning to B6, the binding result is “binds”.

B7: PYGB (protein, UniProt P11216 1-843)
chain: MAKPLTDSEKRKQISVRGLAGLGDVAEVRKSFNRHLHFTLVKDRNVATPRDYFFALAHTVRDHLVGRWIRTQQHYYERDPKRIYYLSLEFYMGRTLQNTMVNLGLQNACDEAIYQLGLDLEELEEIEEDAGLGNGGLGRLAACFLDSMATLGLAAYGYGIRYEFGIFNQKIVNGWQVEEADDWLRYGNPWEKARPEYMLPVHFYGRVEHTPDGVKWLDTQVVLAMPYDTPVPGYKNNTVNTMRLWSAKAPNDFKLQDFNVGDYIEAVLDRNLAENISRVLYPNDNFFEGKELRLKQEYFVVAATLQDIIRRFKSSKFGCRDPVRTCFETFPDKVAIQLNDTHPALSIPELMRILVDVEKVDWDKAWEITKKTCAYTNHTVLPEALERWPVSMFEKLLPRHLEIIYAINQRHLDHVAALFPGDVDRLRRMSVIEEGDCKRINMAHLCVIGSHAVNGVARIHSEIVKQSVFKDFYELEPEKFQNKTNGITPRRWLLLCNPGLADTIVEKIGEEFLTDLSQLKKLLPLVSDEVFIRDVAKVKQENKLKFSAFLEKEYKVKINPSSMFDVHVKRIHEYKRQLLNCLHVVTLYNRIKRDPAKAFVPRTVMIGGKAAPGYHMAKLIIKLVTSIGDVVNHDPVVGDRLKVIFLENYRVSLAEKVIPAADLSQQISTAGTEASGTGNMKFMLNGALTIGTMDGANVEMAEEAGAENLFIFGLRVEDVEALDRKGYNAREYYDHLPELKQAVDQISSGFFSPKEPDCFKDIVNMLMHHDRFKVFADYEAYMQCQAQVDQLYRNPKEWTKKVIRNIACSGKFSSDRTITEYAREIWGVEPSDLQIPPPNIPRD
As to B7, the binding result is recorded as “binds”.
